Assay results reported in paper PMC6715661, “Cardiac MLC2 kinase is localized to the Z-disc and interacts with α-actinin2” (Scientific Reports, 2019).
These are yes or no findings as the source states them, for the method shown. Binding seen in cells or lysates may run through a third protein. A result given as binding can be weak or reduced; the word gives no strength. Tags and fused reporters may be left off the sequences shown.

Target: T1, HA-cMLCK, full length, expressed in HEK293 cells (mouse) (UniProt Q3UIZ8)
T1 sequence: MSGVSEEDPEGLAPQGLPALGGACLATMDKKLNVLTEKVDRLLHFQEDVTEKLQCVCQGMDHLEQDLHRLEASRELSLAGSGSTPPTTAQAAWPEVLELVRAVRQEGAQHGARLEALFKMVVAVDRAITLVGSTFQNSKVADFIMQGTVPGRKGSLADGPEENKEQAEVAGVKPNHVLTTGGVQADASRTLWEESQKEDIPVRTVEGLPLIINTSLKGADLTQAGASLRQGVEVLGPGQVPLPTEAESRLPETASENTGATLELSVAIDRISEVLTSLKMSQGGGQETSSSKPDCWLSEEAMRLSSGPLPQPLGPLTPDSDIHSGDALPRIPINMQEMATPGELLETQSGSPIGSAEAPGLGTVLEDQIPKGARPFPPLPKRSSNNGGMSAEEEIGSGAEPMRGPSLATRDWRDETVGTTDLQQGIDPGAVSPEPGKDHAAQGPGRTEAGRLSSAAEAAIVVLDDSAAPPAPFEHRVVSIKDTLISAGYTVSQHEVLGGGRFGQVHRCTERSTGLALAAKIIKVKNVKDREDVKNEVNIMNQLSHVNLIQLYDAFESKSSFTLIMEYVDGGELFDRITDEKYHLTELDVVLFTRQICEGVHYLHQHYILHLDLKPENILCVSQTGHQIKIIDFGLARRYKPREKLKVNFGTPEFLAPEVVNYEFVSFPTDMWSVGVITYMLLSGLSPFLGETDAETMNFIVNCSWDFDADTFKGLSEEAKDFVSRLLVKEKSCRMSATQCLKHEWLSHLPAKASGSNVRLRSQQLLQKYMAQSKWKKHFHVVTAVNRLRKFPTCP
Assay: co-IP; HA-tagged cMLCK forms and Myc-tagged α-actinin2 forms mixed in vitro; how the complex was isolated and detected is not told for this experiment

binding: binds
Substance: Myc-tagged N-terminus deletion mutant of α-actinin2 with the ABS2 domain (mouse) (domain or fragment)
